# Assay results from PubChem BioAssay AID540276 (National Center for Advancing Translational Sciences (NCATS), 2011).
# Hit rate of the full screen: of about 300,000 compounds, about 5,400 (1.8%) were called active. The shares of active, inactive and inconclusive entries below differ from those in the screen. Calls come from the whole dose curve; tested in HEK293 cells. Potencies beside an inconclusive call are fits to weak or partial responses and may not hold up.
# Assay: qHTS for inhibitors of binding or entry into cells for Marburg Virus
# Settings: Marburg virus pseudotyped entry inhibition, cell reporter; activity change, negative = inhibition: at 37.8 µM (top of the series) unless noted
# % is set by controls: 0 for no effect and ±100 for the full control effect; potency is the fitted concentration of half-maximal effect.
Structure (SMILES),"activity change, negative = inhibition",Potency
CC(=O)Nc1nc(C)c(Oc2ccc(Cl)cc2Cl)c(=O)[nH]1,inactive: 0.761%,
CCN1CCN(CC(=O)Nc2sc3c(c2C#N)CCC(C)C3)CC1 (stereo unspecified),,"inconclusive: 35.5 µM [inhibitor, single point]"
O=C(c1ccc(N2CCOCC2)c([N+](=O)[O-])c1)N1CCN(c2ccccc2)CC1,inactive: -22.8% [at 46.1 µM],
CCOC(=O)C1CCN(C(=O)Cn2cnc3sc(C)c(S(=O)(=O)N4CCOCC4)c3c2=O)CC1,inactive: 12.6% [at 46.1 µM],
CC1=C(C(=O)Nc2ccc(C)cc2)C(c2cccs2)NC(=S)N1 (stereo unspecified),inactive: 21.8%,
Cc1c(C(=O)N2CCCCC2)c(S(=O)(=O)NCc2ccccc2Cl)c(C)n1C,inactive: 8.72% [at 46.1 µM],
Cc1cc(=O)oc2cc(OCC(=O)NCCCN3CCOCC3)c(Cl)cc12,,"inconclusive: 2 µM [inhibitor, partial curve, poor fit]"
CCn1cc(CN2CCc3c([nH]c4ccccc34)C2c2ccc(F)c(OC)c2)c(C)n1 (stereo unspecified),,"inconclusive: 35.5 µM [inhibitor, single point]"
COc1ccccc1CNC(=O)CS(=O)(=O)Cc1ccccc1,inactive: -4.35% [at 46.1 µM],
Cc1ccc(CN2CCN(Cc3ccccc3-c3ccco3)CC2CCO)o1 (stereo unspecified),,"inconclusive: 11.2 µM [inhibitor, partial curve, poor fit]"
Cc1ccc(C(=O)NCCc2nnc3ccc(SCC(=O)Nc4ccc(C)cc4C)nn23)cc1,,"inconclusive: 0.112 µM [inhibitor, full curve, poor fit]"
Cc1ccc(C(=O)NCCSc2c[nH]c3ccccc23)cc1C,,"inconclusive: 8.91 µM [activator, partial curve]"
Cc1ccn2c(Nc3ccc4c(c3)OCO4)c(-c3ccc(C)o3)nc2c1,,"inconclusive: 15.8 µM [activator, single point]"
COc1cccc(C(=O)Nc2ccc3[nH]ncc3c2)c1OC,inactive: -10.9%,
CCOC(C(=O)OC[C@@H](O)CN(CC)CC)(c1ccccc1)c1ccccc1,inactive: -24.8%,
Cc1ccc(-c2cc(C(=O)O)c3cc(Br)ccc3n2)o1,inactive: 1.11%,
CCOC(=O)C1CCc2nc3ccccc3c(=O)n21 (stereo unspecified),,"inconclusive: 11.2 µM [activator, partial curve, poor fit]"
O=C(c1cnsn1)N1CCC(CO)(Cc2cccc(F)c2)CC1,,"inconclusive: 0.891 µM [activator, full curve, poor fit]"
Cc1ccc(C(=O)N2CCN(Cc3ccccc3)CC2)cc1S(=O)(=O)N1CCOCC1,inactive: -0.663%,
COC(=O)c1ccc(NC(=O)CN(Cc2ccc(Cl)cc2)S(C)(=O)=O)cc1,,"inconclusive: 29.1 µM [inhibitor, single point]"
CC(=O)c1ccc(NC(=O)C2CCCN(S(=O)(=O)c3ccc(Br)s3)C2)cc1 (stereo unspecified),inactive: 4.28% [at 46.1 µM],
CCOC(=O)C1CCN(c2nc3c(S(=O)(=O)c4ccc(CC)cc4)nnn3c3ccc(Cl)cc23)CC1,,"inconclusive: 8.91 µM [inhibitor, partial curve, poor fit]"
COc1ccccc1OCCn1cc(C(=O)c2ccco2)c2ccccc21,,"inconclusive: 11.2 µM [inhibitor, single point]"
COc1cccc(/C=N/NC(=O)C(=O)N/N=C/c2cccc(OC)c2OC)c1OC,,"inconclusive: 10 µM [inhibitor, partial curve, poor fit]"

# Three structures out of the list, arranged by molar mass, ascending:
Structure (SMILES),"activity change, negative = inhibition",Potency
CCOC(=O)C1CCc2nc3ccccc3c(=O)n21 (stereo unspecified),,"inconclusive: 11.2 µM [activator, partial curve, poor fit]"
COC(=O)c1ccc(NC(=O)CN(Cc2ccc(Cl)cc2)S(C)(=O)=O)cc1,,"inconclusive: 29.1 µM [inhibitor, single point]"
CCOC(=O)C1CCN(C(=O)Cn2cnc3sc(C)c(S(=O)(=O)N4CCOCC4)c3c2=O)CC1,inactive: 12.6% [at 46.1 µM],

# Carrying on:

Structure (SMILES),"activity change, negative = inhibition",Potency
COc1ccc(CCNc2oc(/C=C/c3ccc(OC)c(OC)c3)nc2C#N)cc1,inactive: 8.59% [at 46.1 µM],
Cc1c(C(=O)N(Cc2ccco2)Cc2cccs2)oc2ccccc12,inactive: -2%,
CCc1ccc(NS(=O)(=O)c2cc(Br)cc3c2N(C(C)=O)CC3)cc1,,"inconclusive: 2.82 µM [inhibitor, full curve, poor fit]"
CC(=O)c1c(C)n([O-])c2cc(F)c(F)cc2[n+]1=O,,"inconclusive: 10 µM [inhibitor, partial curve, poor fit]"
CC(=O)Nc1ccc(NC(=O)c2ccc3c(c2)CCN3S(=O)(=O)c2ccc(Cl)cc2)cc1,,"inconclusive: 35.5 µM [inhibitor, single point]"
Cc1ccc(S(=O)(=O)NCc2ccccc2)cc1C(=O)NCC1CCCO1 (stereo unspecified),inactive: -11.8%,
COc1ccc(-c2cc(C(=O)N3CCN(c4cccc(C)c4C)CC3)c3ccccc3n2)cc1OC,,"inconclusive: 7.08 µM [inhibitor, partial curve, poor fit]"
C1CCC(C(CC2CCCCN2)C2CCCCC2)CC1 (stereo unspecified),,"inconclusive: 8.2 µM [inhibitor, partial curve, poor fit]"
C/C(=N\NC(=O)CN1CCCCC1)c1ccccc1O,,"inconclusive: 35.5 µM [inhibitor, single point]"
O=[N+]([O-])C(/C=C(\Cl)[N+](=O)[O-])=C(N1CCCCC1)N1CCCCC1,,"inconclusive: 10 µM [inhibitor, partial curve, poor fit]"
CN(C)c1cccc(C(=O)OCC(=O)Nc2ccccc2-c2ccccc2)c1,inactive: -23%,
O=C(CSc1nc2ccccc2[nH]1)c1cccs1,,"inconclusive: 2.82 µM [inhibitor, partial curve, poor fit]"
Cc1cc(C(=O)OCC(=O)Nc2ccccc2C#N)c(C)o1,inactive: 8.94%,
CCN1CC2=C(OC(N)=C(C#N)C2c2cccs2)/C(=C/c2cccs2)C1 (stereo unspecified),,"inconclusive: 11.6 µM [inhibitor, partial curve, poor fit]"
BrC(=C\c1ccccc1)/C=N/N1CCN(c2ccccc2)CC1,,"inconclusive: 8.91 µM [inhibitor, partial curve, poor fit]"
O=C(O)/C=C\C(=O)Nc1ccc(N2CCN(c3ccc(Cl)cc3)CC2)cc1,,"inconclusive: 7.94 µM [activator, partial curve, poor fit]"
Cc1ccsc1C(=O)NCc1ccccc1Cl,inactive: 16.3% [at 46.1 µM],
COC(=O)c1c(NC(=O)c2ccoc2C)sc2c1CCC2,inactive: -19.5%,
CCn1c2ccc(F)cc2c2nnc(NN)nc21,inactive: -1.91%,
CCOC(=O)/C=C1/SCC(=O)N1Cc1ccc(Br)cc1,,"inconclusive: 3.98 µM [inhibitor, partial curve, poor fit]"
COc1ccc(S(=O)(=O)N2CCCOC2CNC(=O)C(=O)NCCCN2CCOCC2)cc1C (stereo unspecified),inactive: -9.8%,
COc1ccc(C)cc1N(CC(=O)N1CCCC1)S(C)(=O)=O,,"inconclusive: 1.26 µM [inhibitor, single point]"
Cc1cccc(NC(=O)CN2C(=O)S/C(=C\c3cc(C)n(C)c3C)C2=O)c1,inactive: -15.8%,
Cc1cccc(N=C2NN=C(c3c[nH]c4ccccc34)CS2)c1,inactive: -28.3%,

# Grouped by structure, the entries above containing four or more nitrogen atoms (eleven)
Structure (SMILES),"activity change, negative = inhibition",Potency
CCN1CCN(CC(=O)Nc2sc3c(c2C#N)CCC(C)C3)CC1 (stereo unspecified),,"inconclusive: 35.5 µM [inhibitor, single point]"
O=C(c1ccc(N2CCOCC2)c([N+](=O)[O-])c1)N1CCN(c2ccccc2)CC1,inactive: -22.8% [at 46.1 µM],
CCOC(=O)C1CCN(C(=O)Cn2cnc3sc(C)c(S(=O)(=O)N4CCOCC4)c3c2=O)CC1,inactive: 12.6% [at 46.1 µM],
CCn1cc(CN2CCc3c([nH]c4ccccc34)C2c2ccc(F)c(OC)c2)c(C)n1 (stereo unspecified),,"inconclusive: 35.5 µM [inhibitor, single point]"
Cc1ccc(C(=O)NCCc2nnc3ccc(SCC(=O)Nc4ccc(C)cc4C)nn23)cc1,,"inconclusive: 0.112 µM [inhibitor, full curve, poor fit]"
CCOC(=O)C1CCN(c2nc3c(S(=O)(=O)c4ccc(CC)cc4)nnn3c3ccc(Cl)cc23)CC1,,"inconclusive: 8.91 µM [inhibitor, partial curve, poor fit]"
COc1cccc(/C=N/NC(=O)C(=O)N/N=C/c2cccc(OC)c2OC)c1OC,,"inconclusive: 10 µM [inhibitor, partial curve, poor fit]"
O=[N+]([O-])C(/C=C(\Cl)[N+](=O)[O-])=C(N1CCCCC1)N1CCCCC1,,"inconclusive: 10 µM [inhibitor, partial curve, poor fit]"
CCn1c2ccc(F)cc2c2nnc(NN)nc21,inactive: -1.91%,
COc1ccc(S(=O)(=O)N2CCCOC2CNC(=O)C(=O)NCCCN2CCOCC2)cc1C (stereo unspecified),inactive: -9.8%,
Cc1cccc(N=C2NN=C(c3c[nH]c4ccccc34)CS2)c1,inactive: -28.3%,

# Later entries

Structure (SMILES),"activity change, negative = inhibition",Potency
O=C(CSc1n[nH]c(-c2ccccn2)n1)Nc1ccc(Cl)cc1,,"inconclusive: 10 µM [inhibitor, partial curve]"
CCCOC(=O)c1ccc(NC(=O)CSC2=Nc3ccccc3C3CC=NN23)cc1 (stereo unspecified),inactive: -2.66%,
O=C(c1cccs1)N(Cc1ccco1)C1CCS(=O)(=O)C1 (stereo unspecified),inactive: 25.4%,
C/C(=C\c1ccccc1)CN1CCN(c2ccccc2)CC1,,"inconclusive: 6.51 µM [activator, single point]"
CCOC(=O)c1c(NC(=O)CSc2nnc(C)c(=O)[nH]2)sc(C)c1-c1ccc(C)cc1,,"inconclusive: 35.5 µM [inhibitor, single point]"
COc1ccc(S(=O)(=O)N2CCOCC2)cc1NC(=O)CSc1cc(C)ccc1C,,"inconclusive: 0.501 µM [inhibitor, single point]"
Cc1ccnn1CCC(=O)N1CCCC(CCC(=O)N2CCN(c3ccccn3)CC2)C1 (stereo unspecified),inactive: -27.2% [at 46.1 µM],
COc1ccc(S(=O)(=O)Nc2ccccc2C(=O)NN2CCOCC2)cc1OC,,"inconclusive: 35.5 µM [inhibitor, single point]"
Cc1noc(-c2ccc(N(C)Cc3ccccc3)c([N+](=O)[O-])c2)n1,inactive: -12.1% [at 46.1 µM],
Cc1nn(C)cc1/C=N\NC(=O)c1csc2c1CCCC2,,"inconclusive: 17.8 µM [activator, single point]"
CCN(CC)c1ccc2cc(-c3nnc(-c4ccccc4)o3)c(=O)oc2c1,,"inconclusive: 20 µM [activator, partial curve, poor fit]"
Cc1cc(=O)c2ccccc2n1Cc1ccccc1,,"inconclusive: 15.8 µM [inhibitor, single point]"
Cn1nc(C(F)(F)F)c(C#N)c1N1CCN(c2ccccc2F)CC1,,"inconclusive: 0.0891 µM [inhibitor, full curve, poor fit]"
Clc1ccc(OCCCN2CCCCC2)c(Br)c1,,active: 14.6 µM
CCOC(=O)c1cnc2cc3c(cn2c1=O)CCCC3,,"inconclusive: 0.398 µM [activator, partial curve, poor fit]"
COc1cccc(OCC(=O)N2CCCc3ccccc32)c1,,"inconclusive: 4.47 µM [activator, single point]"
Cc1cccc[n+]1CC(=O)Nc1ccc([N+](=O)[O-])cc1Cl,,"inconclusive: 6.51 µM [inhibitor, single point]"
COc1ccccc1C(=O)NCCC(=O)NCc1ccncc1,,"inconclusive: 7.94 µM [activator, partial curve]"
c1ccc2sc(NC3=NCN(C4CCCCCC4)CN3)nc2c1,,"inconclusive: 0.259 µM [inhibitor, partial curve, poor fit]"
Cc1ccc(C)c(-c2ccc(=O)n(C(C)C(=O)Nc3ccccc3C(F)(F)F)n2)c1 (stereo unspecified),,"inconclusive: 22.4 µM [inhibitor, partial curve, poor fit]"
CCCCNC(=O)CSc1nc(-c2ccc(OC)cc2)cc(C(F)(F)F)n1,,"inconclusive: 5.62 µM [activator, single point]"
CC(=O)c1cccc(NC(=O)NCc2ccccn2)c1,inactive: -6.83%,
N#Cc1ccc(-c2csc(-c3ccno3)n2)cc1,,"inconclusive: 0.708 µM [activator, full curve]"
